Data as given in patent US20050043304A1, “Novel amine derivative having human beta-tryptase inhibitory activity and drugs containing the same” (priority 2001, published 2005).
Some entries share one result that the patent states for a list of compounds.

The compounds below were run on trypsin (assay: Trypsin Inhibition Test). Conditions: read-out: trypsin inhibiting activity in terms of IC50.
Format: biochemical
Experimental: Added to 158 μL of a 20 mM tris-hydrochloric acid buffer (pH 7.5, containing 130 mM NaCl, 3.75 mM CaCl2, and 0.1% BSA) was 20 μL of a trypsin solution (manufactured by Sigma, a stock solution of […] was adjusted to 100 ng/mL with 0.001 N HCl containing 0.1% BSA). After that, 2 μL of a DMSO solution as a test compound adjusted to a concentration 100 times as high as the final concentration was added to the mixture, and the whole was reacted at 37° C. for 3 minutes. Then, 20 μL of a 2 mM synthetic substrate S-2222 (manufactured by Daiichi Pure Chemicals Co., Ltd.) was added to the mixture, and the whole was reacted at 37° C. for an additional 20 minutes, followed by addition of 100 μL of 20% acetic acid for stopping the reaction. After that, absorbance at 405 nm (hereinafter, abbreviated to OD 405 nm) was measured with a microplate reader.

IC50, ≥ 100 µM:
CN(CCCc1ccc(CN)cc1)CCNC(=O)c1ccc2cc(Br)ccc2c1 [compound 41]
Cc1ccc2[nH]c(C(=O)NCCN(C)CCCc3ccc(CN)cc3)cc2c1 [compound 55]
CN(CCCc1ccc(CN)cc1)CCNC(=O)c1cc2cc(Cl)ccc2[nH]1 [compound 58]
CC(=O)c1ccc2[nH]c(C(=O)NCCN(C)CCCc3ccc(CN)cc3)cc2c1 [compound 70]
CN(CCCc1ccc(CN)cc1)CCNC(=O)c1cc2cc(Br)ccc2[nH]1 [compound 61]
